Literature values in patent publication US20040132743A1, “Amorphous form of (-)-[2-[4-[(4-Chlorophenyl)-phenyl methyl]-1- piperazinyl] ethoxy] acetic acid dihydrochloride (levocetirizine dihydrochloride)” (DR. REDDY'S LABORATORIES LIMITED DR. REDDY'S LABORATORIES, …, priority 2002, published 2004).

The chains behind the UniProt entries cited, without tags or fusion partners.
UniProt P35367, whole entry: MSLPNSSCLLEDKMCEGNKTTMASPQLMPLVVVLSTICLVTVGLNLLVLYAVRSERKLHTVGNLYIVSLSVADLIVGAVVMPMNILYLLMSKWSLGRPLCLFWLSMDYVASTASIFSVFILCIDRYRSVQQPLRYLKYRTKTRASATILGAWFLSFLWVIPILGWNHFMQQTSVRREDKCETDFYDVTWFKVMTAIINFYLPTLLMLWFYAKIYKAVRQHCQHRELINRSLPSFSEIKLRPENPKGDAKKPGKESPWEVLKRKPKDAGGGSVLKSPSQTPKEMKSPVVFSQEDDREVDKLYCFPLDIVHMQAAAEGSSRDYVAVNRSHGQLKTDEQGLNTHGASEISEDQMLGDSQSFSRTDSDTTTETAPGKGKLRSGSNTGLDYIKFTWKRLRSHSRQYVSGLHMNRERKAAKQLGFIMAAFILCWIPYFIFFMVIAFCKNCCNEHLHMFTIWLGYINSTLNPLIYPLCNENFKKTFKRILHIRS

Assays:
human H1 receptors = human H1 receptors (Homo sapiens, UniProt P35367); conditions: compared with cetirizine
[1] = in vivo

For `O=C(O)COCCN1CCN([C@H](c2ccccc2)c2ccc(Cl)cc2)CC1` [Levocetirizine], the “affinity for human H1 receptors relative to cetirizine” value (human H1 receptors) is listed as “two-fold higher” and the absorption [1] is listed as “rapidly and extensively absorbed”.
